# Measurements published in publication PMC7819943, “Rice protein-binding microarrays: a tool to detect cis-acting elements near promoter regions in rice”.
# Amino acid sequences for entries named in this document (tags omitted).
# UniProt Q0JBA9, entry or part of it: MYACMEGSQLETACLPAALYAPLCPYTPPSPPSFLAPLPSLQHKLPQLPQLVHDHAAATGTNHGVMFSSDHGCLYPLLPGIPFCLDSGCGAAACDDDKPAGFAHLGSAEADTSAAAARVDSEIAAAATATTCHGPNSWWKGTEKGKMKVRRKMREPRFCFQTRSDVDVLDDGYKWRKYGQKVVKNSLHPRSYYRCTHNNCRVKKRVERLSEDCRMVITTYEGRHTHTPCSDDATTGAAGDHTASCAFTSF
# Some of the results follow.
# Biological target: OsWRKY34 (Oryza sativa, UniProt Q0JBA9 1-250)
# Experiment: protein-binding microarray (RPBM); PBS, 2% BSA, 51.3 ng/ul salmon testes DNA, 50 uM zinc acetate, 200 nM TF, 25 C, 1 h; high values mean tight binding
# Details: protein: recombinant; tags: N-terminal polyhistidine and DsRed monomer fusion (pET32a); label: CyDye5-dUTP incorporated in the synthesized complementary strand; 3' TTTTT single-stranded linker to array surface; dsDNA, one strand shown
# How it was run: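 A custom Agilent array was converted to double-stranded form by primer extension with Cy5-dUTP and blocked with 2% BSA. Protein at 200 nM in PBS with 2% BSA, salmon testes DNA and 50 µM zinc acetate was applied for 1 h at 25 °C, followed by washing. The proteins were polyhistidine–DsRed N-terminal fusions of transcription factors, expressed in E. coli BL21-CodonPlus and Ni–NTA-purified. The binding signal is per-feature fluorescence intensity (arbitrary units) from an Axon 4000B scanner.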
row,Sequence,binding signal
1,CCTACGACTCATTACATCCACACGCAAGCAAAATCTCACTCGGAGTCACCTAGTGCAG,8260 fluorescence intensity (a.u.)
2,CGCCTCGCCGTCTCAGTGTCGACAGTGTCCCCTCCCCTCACGGAGTCACCTAGTGCAG,9070 fluorescence intensity (a.u.)
3,GTCCACTCCCCGTTGATTTGATTTGTCTCGTAGCTGCAGCCGGAGTCACCTAGTGCAG,8380 fluorescence intensity (a.u.)
4,CTTCTGCTTTGGGAGGATGCTTTGTCTATCGTTTCCTAACCGGAGTCACCTAGTGCAG,9240 fluorescence intensity (a.u.)
5,GGGAGTGGGCCGGCCCAGCTGAGAGGAGGGCGGGCGCGCGCGGAGTCACCTAGTGCAG,9320 fluorescence intensity (a.u.)
6,TCCCGTGTTCTTGTTCTTCTCTGGTGATCATCATCATCATCGGAGTCACCTAGTGCAG,8410 fluorescence intensity (a.u.)
7,CACACTAAAGTGCTTTTTTTTTTTTGGTTCTCGTTCATTTCGGAGTCACCTAGTGCAG,8250 fluorescence intensity (a.u.)
8,ATGGTATAACCACTGTCCGTCCGAATCCGCTCCGTTTTCACGGAGTCACCTAGTGCAG,10200 fluorescence intensity (a.u.)
9,TATCCTCTTCATTTTGAATTATTTGCCGTTTAATTTTATTCGGAGTCACCTAGTGCAG,8210 fluorescence intensity (a.u.)
10,CCGAGCCACCCACCCGCCACCGCCGCCGCCGCCGCCGCTCCGGAGTCACCTAGTGCAG,12100 fluorescence intensity (a.u.)
11,TTAATTATATGCTAATGGCTAACCTTATTTTACGTATCTTCGGAGTCACCTAGTGCAG,8180 fluorescence intensity (a.u.)
12,TATTTCTCGTTATAGTTTCTCGATCCATCGATGCAGGAACCGGAGTCACCTAGTGCAG,8440 fluorescence intensity (a.u.)
13,GCTATGAGATTTATATATTTTTTTGTCCTGGGCTTCTTTTCGGAGTCACCTAGTGCAG,9510 fluorescence intensity (a.u.)
14,GTTACCGCCACTTCCGTCGGTATTACTCTGCCACGACCCGCGGAGTCACCTAGTGCAG,8610 fluorescence intensity (a.u.)
15,GACCTCGCCTGCCGCCATCGTCGCTGACATCATCACCATCCGGAGTCACCTAGTGCAG,10400 fluorescence intensity (a.u.)
16,ACTTGCAGTGTTTAACCATTCGTCTTATTCAAAAATTTTTCGGAGTCACCTAGTGCAG,8340 fluorescence intensity (a.u.)
17,CATAAAGCCTATAAACCGGCTCAGTGACCGGTTCTTTTTTCGGAGTCACCTAGTGCAG,8920 fluorescence intensity (a.u.)
18,TATCTCCTGTCTTTTACTTGCATGTTTTCAGGGCTCGGTTCGGAGTCACCTAGTGCAG,11900 fluorescence intensity (a.u.)
19,AATTGGTTCTCGTAGTTTCTCGTTCTCAATCAATCATTCCCGGAGTCACCTAGTGCAG,10200 fluorescence intensity (a.u.)
20,AGCACGATTCACCTCCAATTATTTTTTTTTGTCAGAGGCCCGGAGTCACCTAGTGCAG,8300 fluorescence intensity (a.u.)
21,ACTCTTTTACCACTCATCCGATCACCAATTCACCACTACCCGGAGTCACCTAGTGCAG,9200 fluorescence intensity (a.u.)

row,Sequence,binding signal
1,GAAATGTCTGTACAATGAGGAATATTGGGTTATGCTAGCTCGGAGTCACCTAGTGCAG,8400 fluorescence intensity (a.u.)
2,AATTTCGTGTGTTGGTCCTCAGCATACTACTACAGAACACCGGAGTCACCTAGTGCAG,8320 fluorescence intensity (a.u.)
3,CATCGGTTTCTGACTTTCACCAGCTTCAACGTTGGCATCACGGAGTCACCTAGTGCAG,11400 fluorescence intensity (a.u.)
4,ACCCCTACCATTTGCCCCTATTGCTTTGAGCATGTGTTGACGGAGTCACCTAGTGCAG,9550 fluorescence intensity (a.u.)
5,CTGCAAACAATCATGTACTCCAGCCAACATCATTTCCAGACGGAGTCACCTAGTGCAG,8400 fluorescence intensity (a.u.)
6,GGGGAGGCGGAAGGCGGTGCGGGGAGGCGGCGCTCGCTGACGGAGTCACCTAGTGCAG,8620 fluorescence intensity (a.u.)
7,GCTCACTCTGTCGTTCTCTCTCTCCCATCCGGCGCGACGCCGGAGTCACCTAGTGCAG,11800 fluorescence intensity (a.u.)
8,TTACGCATCACTTGGTATCTGAATCTCTTTTGCAGCAGTTCGGAGTCACCTAGTGCAG,10000 fluorescence intensity (a.u.)
9,CACTTGGCTTGATCGATCCTATATATATACCAGCAACCATCGGAGTCACCTAGTGCAG,10400 fluorescence intensity (a.u.)
10,GTCTTCTTCTCCAACATCACATAATGGTTTGTTATCTTCTCGGAGTCACCTAGTGCAG,8340 fluorescence intensity (a.u.)
11,CATCGAGTAGCCGCCGCCGCCACCTGGTGCTCGTGACGCCCGGAGTCACCTAGTGCAG,8670 fluorescence intensity (a.u.)
12,GGTTTGTTTGTCAACCTCGGGGTGGTTGGGTACTTGGGTTCGGAGTCACCTAGTGCAG,11000 fluorescence intensity (a.u.)
13,CCAATTCAGGCTCCATGCTCTTATCCACAAACTGTCTATACGGAGTCACCTAGTGCAG,9100 fluorescence intensity (a.u.)
14,CTTCGTTCCCGCGCGGCCACTCCTTCCACCACCACCTCCTCGGAGTCACCTAGTGCAG,9660 fluorescence intensity (a.u.)
15,ACAGCCTATATACCTTTTTTATGTTCTCACATCCTGCTGGCGGAGTCACCTAGTGCAG,8070 fluorescence intensity (a.u.)
16,ACCCGTTCTCACACTTGTCAATTTGTCATTCCAAATATGCCGGAGTCACCTAGTGCAG,9300 fluorescence intensity (a.u.)
17,TTTAACTATTTGCCACTTTTGTCTACGTGATGTGTCCGCGCGGAGTCACCTAGTGCAG,9440 fluorescence intensity (a.u.)
18,CCTCACATGATCCCCATTATTGTCATTTGCTTGTTTTCTTCGGAGTCACCTAGTGCAG,11900 fluorescence intensity (a.u.)
19,TTCTTAATTATCTGTAGATCCTCTTCCTTATCTCTTGTACCGGAGTCACCTAGTGCAG,8050 fluorescence intensity (a.u.)
20,TTTGATGAGTTGACTTCGTTGACCCAACAGTGATGGCCGACGGAGTCACCTAGTGCAG,11200 fluorescence intensity (a.u.)
21,TTTTTTTTTCTCTCTCGTTTTCCCTCGGGCTACGCCTCTTCGGAGTCACCTAGTGCAG,8120 fluorescence intensity (a.u.)

# Exported bar-delimited: part of the list above
row | Sequence | binding signal
12 | GGTTTGTTTGTCAACCTCGGGGTGGTTGGGTACTTGGGTTCGGAGTCACCTAGTGCAG | 11000 fluorescence intensity (a.u.)
13 | CCAATTCAGGCTCCATGCTCTTATCCACAAACTGTCTATACGGAGTCACCTAGTGCAG | 9100 fluorescence intensity (a.u.)
14 | CTTCGTTCCCGCGCGGCCACTCCTTCCACCACCACCTCCTCGGAGTCACCTAGTGCAG | 9660 fluorescence intensity (a.u.)
